Source: PubChem BioAssay AID545 (NCATS, 2006).

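Cell health in kidney proximal tubule cultures, judged by ATP-driven light output after compound exposure, with the duration left unstated.
Percent change in activity at the highest tested dose, scaled between DMSO-only and full tamoxifen inhibition; more negative values mean stronger cell killing.
Calls come from curve shape, fit quality and efficacy: a full or strong well-fitted curve is active, a flat curve is inactive, and all other curves are inconclusive.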

Values are in %.
Common to all entries: at 91.7 µM (top of the series).
Every entry below has the call inconclusive.
These entries are mostly ones the record files as inconclusive; other results of the assay are not listed here.
An entry listed twice with the same setting is a separate test.

| SMILES | tested on / at | activity change (%) |
|---|---|---|
| `Nc1ccccc1N` | primary cells of rat origin | -31.4 |
| `C[C@]12C[C@H](O)[C@H]3[C@@H](CCC4=CC(=O)CC[C@@]43C)[C@@H]1CC[C@@H]2C(=O)CO` | primary cells of rat origin | -34.56 |
| `C[C@@H]1C[C@@H]([C@H](O)CC2CC(=O)NC(=O)C2)C(=O)[C@@H](C)C1` | - | -74.03 |
| `COC(=O)Nc1nc2ccccc2[nH]1` | primary cells of rat origin | -53.65 |
| `O.O.O.O.O.O.O.O=S(=O)([O-])[O-].[Co+2]` | primary cells of rat origin | -71.52 |
| `CN(C)CCC=C1c2ccccc2CCc2ccccc21` | primary cells of rat origin | -32.96 |
| `c1ccc(Nc2ccc3ccccc3c2)cc1` | - | -32.42 |
| `CC(=O)[C@H]1CC[C@H]2[C@@H]3CCC4=CC(=O)CC[C@]4(C)[C@H]3CC[C@]12C` | primary cells of rat origin | -42.4 |
| `CN(C)c1ccc(N=Nc2ccccc2)cc1` | - | -35.15 |
| `O=c1cc(-c2ccc(O)cc2)oc2cc(O)cc(O)c12` | primary cells of rat origin | -60.48 |
| `C[C@]12CCC(=O)C=C1CC[C@@H]1[C@@H]2CC[C@@]2(C)[C@H]1CC[C@]2(C)O` | - | -40.89 |
| `C[C@@H]1C[C@@H]([C@H](O)CC2CC(=O)NC(=O)C2)C(=O)[C@@H](C)C1` | - | -78.56 |
| `Nc1ccc(Cc2ccc(N)c(Cl)c2)cc1Cl` | primary cells of rat origin | -45.32 |
| `COc1cc([C@H]2Oc3cc([C@H]4Oc5cc(O)cc(O)c5C(=O)[C@@H]4O)ccc3O[C@@H]2CO)ccc1O` | primary cells of rat origin | -39.09 |
| `O=C(Nc1ccccc1)Nc1ccccc1` | primary cells of rat origin | -31.16 |
| `CC(=O)O[C@]1(C(C)=O)CC[C@H]2[C@@H]3C[C@H](C)C4=CC(=O)CC[C@]4(C)[C@H]3CC[C@@]21C` | primary cells of rat origin | -55.22 |
| `O=Nc1ccc(Nc2ccccc2)cc1` | primary cells of rat origin | -49.61 |
| `Oc1ccc(Cl)cc1Cc1cc(Cl)ccc1O` | primary cells of rat origin | -72.54 |
| `CC(=O)[C@H]1CC[C@H]2[C@@H]3CCC4=CC(=O)CC[C@]4(C)[C@H]3CC[C@]12C` | primary cells of rat origin | -36.88 |
| `COc1cc(/C=C/C(=O)CC(=O)/C=C/c2ccc(O)c(OC)c2)ccc1O` | primary cells of rat origin | -59.68 |
| `Oc1cc(Cl)c(Cl)c(Cl)c1` | - | -61.04 |
| `Cn1cnc([N+](=O)[O-])c1Sc1ncnc2nc[nH]c12` | primary cells of rat origin | -45.71 |
| `Cc1c2ccccc2c(C)c2c1ccc1ccccc12` | primary cells of rat origin | -39.73 |
| `O=[N+]([O-])/C=C/c1ccccc1` | - | -33.57 |
| `CC(/C=C/C=C(C)/C=C/C(=O)O)=C\C=C\C=C(C)\C=C\C=C(C)\C=C\C(=O)O` | primary cells of rat origin | -32.47 |
| `Oc1c(Cl)cc(Cl)c(Cl)c1Cc1c(O)c(Cl)cc(Cl)c1Cl` | primary cells of rat origin | -72.4 |
| `CCCCNC(=O)n1c(NC(=O)OC)nc2ccccc21` | primary cells of rat origin | -40.16 |
| `Oc1cc2c(cc1O)[C@H]1c3ccc(O)c(O)c3OC[C@@]1(O)C2` | primary cells of rat origin | -78.02 |
| `C[C@]12CCC(=O)C=C1CC[C@@H]1[C@@H]2CC[C@]2(C)C(=O)CC[C@@H]12` | - | -31.26 |
| `O=C(CCl)c1ccccc1` | - | -42.09 |
| `N=C(N)c1ccc(OCCCCCOc2ccc(C(=N)N)cc2)cc1` | primary cells of rat origin | -43.15 |